Results: US9486427B2, “Administration of aerosolised iloprost” (VECTURA GMBH, priority 2012, dated 2016)

Assay: In vitro nebulisation study, AKITA2 APIXNEB, radiolabelled 50 μg/mL iloprost solution, aerosol captured on inhalation filters (Example 1)
Description: In an in vitro nebulisation study, the feasibility of delivering aerosolised single doses of 2.5 μg and of 5 μg of iloprost to the mouthpiece of a nebuliser was evaluated. A nebuliser system comprising an electronic vibrating mesh nebuliser (by PARI GmbH, incorporating the Touchspray Technology®; having some similarity to PARI's eFlow® nebuliser) and a device for controlling the breathing pattern (AKITA®) was configured by means of an electronic chip card to deliver an aerosol from an aqueous solution at a flow rate of 15 L/min. The inhalation system is also known as AKITA^2 APIXNEB™ (by Activaero GmbH). For the purpose of enabling the control of the breathing pattern of a patient using the AKITA^2 unit, the nebuliser handset device in the APIXNEB™ system differs from the eFlow® system by modifications allowing it be connected to the AKITA^2 unit through an electric cord and an additional tube for providing e.g. a predetermined inspiratory air flow. Further details on the device may be taken e.g. from the Fact Sheet AKITA^2 APIXNEB™ (Art.-Nr. 05DK0105| V 1.0/Aufl.1). The inspiration time per breath was set at 4.1 seconds, corresponding to an inhalation volume of 1.025 mL. The nebulisation time was adjusted to 3.1 seconds, which corresponds to an aerosol volume of 775 mL. The device was also programmed to deliver 250 mL of aerosol-free air after emitting the aerosol during every inspiration cycle.
Two different meshes were used in the nebuliser. Both had around 3,000 openings of approx. 2 μm in diameter.
Per test run an aliquot of 0.5 mL of an aqueous composition comprising 50 μg/mL of iloprost and the radiolabel ^99mTc in 0.9 wt.-% saline solution was filled into the fluid reservoir of the nebuliser. The inhaler system was activated to aerosolise the solution during series of four simulated breaths. The emitted aerosol was captured by inhalation filters, and the amount of aerosol was determined with a scintillation counter.

In the case of `CC#CCC(C)[C@H](O)/C=C/[C@@H]1[C@H]2C/C(=C/CCCC(=O)O)C[C@H]2C[C@H]1O` (stereo partly drawn) [Iloprost, 5-{(E)-(1S,5S,6R,7R)-7-hydroxy-6[(E)-(3S,4RS)-3-hydroxy-4-methyl-1-octen-6-inyl]-bi-cyclo[3.3.0]octan-3-ylidene}pentanoic acid], the “mean amount of delivered aerosol, as iloprost” value (“mean amount” for short) (all four breaths, first series of experiments) is reported as 5.25 µg, the “mean amount” value (all four breaths, second series of experiments) is reported as 5.19 µg and the “mean amount” value (first two breaths, first series of experiments) is reported as 2.50 µg. The “mean amount” value (first two breaths, second series of experiments) was 2.53 µg.
